Measured values as given in the supplement of paper PMC7666118.
The list shows a part of the results.

Chains of the proteins cited; added tags and fusions are not shown. Lines headed by an entry give the natural chain unless they say otherwise; changes in a name come on top.
UniProt Q14444, whole entry: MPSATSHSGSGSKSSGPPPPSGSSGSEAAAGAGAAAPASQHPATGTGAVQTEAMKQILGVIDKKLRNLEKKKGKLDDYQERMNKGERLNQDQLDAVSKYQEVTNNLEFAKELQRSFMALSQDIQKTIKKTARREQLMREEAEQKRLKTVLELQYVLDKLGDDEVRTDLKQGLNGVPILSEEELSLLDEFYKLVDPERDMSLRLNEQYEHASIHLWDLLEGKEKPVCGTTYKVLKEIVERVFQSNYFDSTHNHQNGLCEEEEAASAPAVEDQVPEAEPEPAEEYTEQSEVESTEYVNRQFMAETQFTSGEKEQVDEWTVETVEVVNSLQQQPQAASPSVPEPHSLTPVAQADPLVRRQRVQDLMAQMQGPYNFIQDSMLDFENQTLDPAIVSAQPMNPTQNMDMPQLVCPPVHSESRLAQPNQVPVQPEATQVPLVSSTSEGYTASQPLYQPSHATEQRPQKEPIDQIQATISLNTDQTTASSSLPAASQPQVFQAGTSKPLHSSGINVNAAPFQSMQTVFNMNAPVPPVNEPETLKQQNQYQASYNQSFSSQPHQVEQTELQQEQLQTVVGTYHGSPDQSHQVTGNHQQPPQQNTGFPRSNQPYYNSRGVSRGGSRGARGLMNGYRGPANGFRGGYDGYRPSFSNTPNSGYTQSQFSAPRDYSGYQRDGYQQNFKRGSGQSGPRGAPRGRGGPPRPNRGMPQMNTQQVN
UniProt Q5VWZ2: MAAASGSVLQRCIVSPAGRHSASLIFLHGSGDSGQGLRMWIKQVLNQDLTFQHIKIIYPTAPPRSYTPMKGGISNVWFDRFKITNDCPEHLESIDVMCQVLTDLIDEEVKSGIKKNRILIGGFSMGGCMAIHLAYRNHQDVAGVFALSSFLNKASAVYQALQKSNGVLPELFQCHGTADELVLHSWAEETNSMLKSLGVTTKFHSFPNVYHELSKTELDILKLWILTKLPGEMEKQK
UniProt Q9Y2L9: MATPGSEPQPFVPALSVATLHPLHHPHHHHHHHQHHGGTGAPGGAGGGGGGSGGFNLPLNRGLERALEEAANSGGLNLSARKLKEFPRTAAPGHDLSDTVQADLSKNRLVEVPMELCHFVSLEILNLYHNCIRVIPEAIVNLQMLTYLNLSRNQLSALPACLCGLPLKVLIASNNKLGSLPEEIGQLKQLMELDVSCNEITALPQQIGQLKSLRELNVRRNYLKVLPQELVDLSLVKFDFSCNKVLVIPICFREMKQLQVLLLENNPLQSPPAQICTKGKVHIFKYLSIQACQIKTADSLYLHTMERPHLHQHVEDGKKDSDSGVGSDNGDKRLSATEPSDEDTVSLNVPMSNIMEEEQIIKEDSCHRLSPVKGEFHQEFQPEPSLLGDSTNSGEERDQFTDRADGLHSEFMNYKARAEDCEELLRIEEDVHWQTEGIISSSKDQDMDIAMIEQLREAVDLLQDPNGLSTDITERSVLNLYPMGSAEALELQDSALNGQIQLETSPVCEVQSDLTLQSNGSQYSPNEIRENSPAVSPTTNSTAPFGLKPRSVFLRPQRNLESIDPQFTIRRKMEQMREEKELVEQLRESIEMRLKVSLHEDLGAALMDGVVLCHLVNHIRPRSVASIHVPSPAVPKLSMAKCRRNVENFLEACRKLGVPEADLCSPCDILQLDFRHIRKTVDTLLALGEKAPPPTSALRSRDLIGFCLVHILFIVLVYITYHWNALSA
UniProt Q7L1W4: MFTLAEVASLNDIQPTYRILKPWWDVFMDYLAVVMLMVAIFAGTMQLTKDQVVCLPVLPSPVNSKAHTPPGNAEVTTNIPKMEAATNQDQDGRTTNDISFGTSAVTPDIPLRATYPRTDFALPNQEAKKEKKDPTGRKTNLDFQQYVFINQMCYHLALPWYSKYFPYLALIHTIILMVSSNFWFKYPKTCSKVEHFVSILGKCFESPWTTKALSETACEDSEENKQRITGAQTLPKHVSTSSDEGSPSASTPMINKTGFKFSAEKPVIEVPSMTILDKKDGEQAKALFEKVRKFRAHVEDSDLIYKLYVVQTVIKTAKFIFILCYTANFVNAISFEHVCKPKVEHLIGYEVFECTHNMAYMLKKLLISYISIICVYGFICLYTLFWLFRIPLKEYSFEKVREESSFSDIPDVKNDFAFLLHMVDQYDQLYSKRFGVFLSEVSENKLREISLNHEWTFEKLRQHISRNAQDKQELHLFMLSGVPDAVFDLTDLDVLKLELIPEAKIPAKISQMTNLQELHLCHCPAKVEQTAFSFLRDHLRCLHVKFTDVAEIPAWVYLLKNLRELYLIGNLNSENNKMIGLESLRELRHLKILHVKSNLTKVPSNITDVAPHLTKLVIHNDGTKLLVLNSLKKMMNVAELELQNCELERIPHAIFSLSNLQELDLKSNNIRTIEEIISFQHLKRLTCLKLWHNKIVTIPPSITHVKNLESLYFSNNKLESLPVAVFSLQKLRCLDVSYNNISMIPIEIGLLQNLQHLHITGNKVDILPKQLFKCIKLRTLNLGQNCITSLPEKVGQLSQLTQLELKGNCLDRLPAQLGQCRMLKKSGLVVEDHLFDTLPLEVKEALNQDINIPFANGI
UniProt P49257: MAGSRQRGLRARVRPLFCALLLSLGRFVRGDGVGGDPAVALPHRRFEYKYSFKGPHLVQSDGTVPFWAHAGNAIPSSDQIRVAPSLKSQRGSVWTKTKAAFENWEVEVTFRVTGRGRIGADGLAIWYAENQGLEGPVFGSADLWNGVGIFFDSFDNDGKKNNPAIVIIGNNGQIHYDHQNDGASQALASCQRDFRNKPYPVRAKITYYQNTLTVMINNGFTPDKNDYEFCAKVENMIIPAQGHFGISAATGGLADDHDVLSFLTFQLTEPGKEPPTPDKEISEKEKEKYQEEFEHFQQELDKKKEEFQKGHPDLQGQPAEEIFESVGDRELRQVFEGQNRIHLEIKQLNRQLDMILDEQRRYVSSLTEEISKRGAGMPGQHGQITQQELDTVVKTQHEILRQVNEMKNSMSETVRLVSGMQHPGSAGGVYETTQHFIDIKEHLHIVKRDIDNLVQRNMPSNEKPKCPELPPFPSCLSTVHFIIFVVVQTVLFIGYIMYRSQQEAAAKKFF
UniProt P62312: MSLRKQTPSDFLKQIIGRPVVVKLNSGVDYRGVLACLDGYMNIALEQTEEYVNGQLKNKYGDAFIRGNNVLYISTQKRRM
UniProt Q9Y3D7: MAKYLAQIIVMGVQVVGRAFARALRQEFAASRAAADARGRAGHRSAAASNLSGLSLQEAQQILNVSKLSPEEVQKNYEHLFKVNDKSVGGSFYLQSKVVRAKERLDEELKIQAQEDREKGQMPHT
UniProt O60870: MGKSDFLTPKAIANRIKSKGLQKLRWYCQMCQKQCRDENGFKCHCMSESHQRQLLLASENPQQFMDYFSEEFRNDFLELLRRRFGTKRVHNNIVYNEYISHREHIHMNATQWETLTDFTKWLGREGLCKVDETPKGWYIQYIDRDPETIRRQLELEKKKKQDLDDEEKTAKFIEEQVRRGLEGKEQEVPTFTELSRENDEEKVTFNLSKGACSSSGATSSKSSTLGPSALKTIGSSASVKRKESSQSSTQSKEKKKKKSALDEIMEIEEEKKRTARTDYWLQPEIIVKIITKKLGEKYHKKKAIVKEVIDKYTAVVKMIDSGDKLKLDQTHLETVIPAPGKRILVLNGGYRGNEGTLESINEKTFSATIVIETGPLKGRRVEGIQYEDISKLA
UniProt Q9P260: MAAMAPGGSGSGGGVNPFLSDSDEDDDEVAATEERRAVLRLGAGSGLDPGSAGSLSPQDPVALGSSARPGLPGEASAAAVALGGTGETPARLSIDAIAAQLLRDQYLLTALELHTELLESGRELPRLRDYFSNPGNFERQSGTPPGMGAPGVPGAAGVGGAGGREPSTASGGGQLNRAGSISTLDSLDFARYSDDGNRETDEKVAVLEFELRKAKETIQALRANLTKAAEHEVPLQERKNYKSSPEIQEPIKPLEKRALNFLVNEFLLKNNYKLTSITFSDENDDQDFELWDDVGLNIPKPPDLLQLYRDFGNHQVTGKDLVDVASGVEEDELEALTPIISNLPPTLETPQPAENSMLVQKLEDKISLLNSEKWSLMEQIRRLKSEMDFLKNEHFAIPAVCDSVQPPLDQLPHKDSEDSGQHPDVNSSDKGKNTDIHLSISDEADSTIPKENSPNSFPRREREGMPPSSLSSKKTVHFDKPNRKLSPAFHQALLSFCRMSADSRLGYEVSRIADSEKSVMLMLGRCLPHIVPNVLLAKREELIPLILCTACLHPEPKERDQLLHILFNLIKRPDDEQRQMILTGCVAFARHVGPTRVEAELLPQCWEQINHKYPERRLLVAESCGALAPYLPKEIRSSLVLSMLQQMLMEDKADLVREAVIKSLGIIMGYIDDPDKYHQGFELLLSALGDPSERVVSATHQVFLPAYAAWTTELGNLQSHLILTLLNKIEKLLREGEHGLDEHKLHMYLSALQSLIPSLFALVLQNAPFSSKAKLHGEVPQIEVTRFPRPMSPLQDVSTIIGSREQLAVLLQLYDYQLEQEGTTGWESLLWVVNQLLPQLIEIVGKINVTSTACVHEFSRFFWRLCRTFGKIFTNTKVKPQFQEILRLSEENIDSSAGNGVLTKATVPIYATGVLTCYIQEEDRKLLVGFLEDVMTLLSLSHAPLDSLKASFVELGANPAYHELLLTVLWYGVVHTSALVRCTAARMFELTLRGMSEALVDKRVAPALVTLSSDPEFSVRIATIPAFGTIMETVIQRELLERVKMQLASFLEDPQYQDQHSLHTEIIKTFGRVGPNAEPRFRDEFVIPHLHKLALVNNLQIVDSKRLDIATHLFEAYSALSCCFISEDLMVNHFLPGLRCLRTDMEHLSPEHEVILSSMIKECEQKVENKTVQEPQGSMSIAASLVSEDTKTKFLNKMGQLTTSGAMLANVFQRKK
UniProt Q3MHD2: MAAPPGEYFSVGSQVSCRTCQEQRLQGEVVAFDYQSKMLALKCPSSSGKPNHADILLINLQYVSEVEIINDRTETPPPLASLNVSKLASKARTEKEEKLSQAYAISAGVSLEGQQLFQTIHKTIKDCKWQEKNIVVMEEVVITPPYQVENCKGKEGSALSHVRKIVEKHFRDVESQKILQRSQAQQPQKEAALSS
UniProt Q5VZE5: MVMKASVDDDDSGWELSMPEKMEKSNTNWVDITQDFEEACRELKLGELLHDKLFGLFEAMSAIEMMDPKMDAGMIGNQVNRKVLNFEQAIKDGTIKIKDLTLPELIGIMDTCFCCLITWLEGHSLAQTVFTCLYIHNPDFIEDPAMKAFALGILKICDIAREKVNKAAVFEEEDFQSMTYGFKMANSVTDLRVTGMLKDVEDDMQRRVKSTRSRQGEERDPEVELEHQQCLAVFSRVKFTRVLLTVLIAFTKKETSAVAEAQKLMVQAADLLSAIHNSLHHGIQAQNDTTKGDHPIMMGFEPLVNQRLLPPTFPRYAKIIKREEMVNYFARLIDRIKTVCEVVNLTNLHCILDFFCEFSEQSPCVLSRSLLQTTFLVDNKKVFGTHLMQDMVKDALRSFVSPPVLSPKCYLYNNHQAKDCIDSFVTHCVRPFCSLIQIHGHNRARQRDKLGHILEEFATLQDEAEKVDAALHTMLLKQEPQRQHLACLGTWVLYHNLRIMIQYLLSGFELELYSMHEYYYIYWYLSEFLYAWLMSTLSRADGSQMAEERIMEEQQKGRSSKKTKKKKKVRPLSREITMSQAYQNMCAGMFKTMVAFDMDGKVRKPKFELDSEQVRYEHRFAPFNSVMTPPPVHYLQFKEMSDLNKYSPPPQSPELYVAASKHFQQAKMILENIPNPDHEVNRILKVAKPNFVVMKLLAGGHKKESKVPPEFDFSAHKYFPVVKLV
UniProt Q9Y496, whole entry: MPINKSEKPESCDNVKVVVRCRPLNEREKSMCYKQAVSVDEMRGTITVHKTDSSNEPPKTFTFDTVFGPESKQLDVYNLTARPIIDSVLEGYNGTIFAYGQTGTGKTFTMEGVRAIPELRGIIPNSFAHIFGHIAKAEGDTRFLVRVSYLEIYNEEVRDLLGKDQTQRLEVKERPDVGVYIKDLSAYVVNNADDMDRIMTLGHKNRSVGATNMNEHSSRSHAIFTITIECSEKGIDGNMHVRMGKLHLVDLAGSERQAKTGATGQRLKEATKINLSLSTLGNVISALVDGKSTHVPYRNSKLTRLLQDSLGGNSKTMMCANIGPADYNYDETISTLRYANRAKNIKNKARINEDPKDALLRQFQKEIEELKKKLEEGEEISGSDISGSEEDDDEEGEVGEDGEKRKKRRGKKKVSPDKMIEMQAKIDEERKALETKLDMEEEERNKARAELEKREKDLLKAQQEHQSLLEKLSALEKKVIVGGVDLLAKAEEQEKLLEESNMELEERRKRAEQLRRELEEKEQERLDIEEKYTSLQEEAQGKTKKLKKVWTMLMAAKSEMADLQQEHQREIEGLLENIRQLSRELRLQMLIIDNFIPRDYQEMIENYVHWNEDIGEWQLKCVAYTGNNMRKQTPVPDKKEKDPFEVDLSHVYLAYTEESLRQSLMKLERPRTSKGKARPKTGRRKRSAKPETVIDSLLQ

compound: COc1ccc(Cn2ccc3ccc(C(=O)NO)cc32)cc1; experiment: dose-dependent thermal stabilisation call (2D-TPP, DLPTP, 10% FDR) (binary (1 = stabilised)); higher = stabilised by the compound; conditions: system: HL-60 intact cells; concentration range 0.04-10 µM

| Target | dose-dependent thermal stabilisation call |
| --- | --- |
| LEO1 (UniProt Q8WVC0) | inactive: 0 |
| M11S1 (UniProt Q14444) | inactive: 0 |
| KLRAQ1 (UniProt Q6ZMI0) | inactive: 0 |
| LYPLAL1 (UniProt Q5VWZ2) | inactive: 0 |
| LRCH1 (UniProt Q9Y2L9) | inactive: 0 |
| LRRC8D (UniProt Q7L1W4) | inactive: 0 |
| KRAS (UniProt P01116) | inactive: 0 |
| KIF3B (UniProt O15066) | inactive: 0 |
| LMAN1 (UniProt P49257) | inactive: 0 |
| LSM6 (UniProt P62312) | inactive: 0 |
| MAGMAS (UniProt Q9Y3D7) | inactive: 0 |
| LENG1 (UniProt Q96BZ8) | inactive: 0 |
| KIF15 (UniProt Q9NS87) | inactive: 0 |
| KIN (UniProt O60870) | inactive: 0 |
| LOC153364 | inactive: 0 |
| MACF1 | inactive: 0 |
| KIAA1468 (UniProt Q9P260) | inactive: 0 |
| MAGED1 (UniProt Q9Y5V3) | inactive: 0 |
| MAK16 (UniProt Q9BXY0) | inactive: 0 |
| LSM12 (UniProt Q3MHD2) | inactive: 0 |
| LOC100129759 | inactive: 0 |
| MAK10 (UniProt Q5VZE5) | inactive: 0 |
| KIF3A (UniProt Q9Y496) | inactive: 0 |
| LDHA (UniProt P00338) | inactive: 0 |
| MAN1C1 (UniProt Q9NR34) | inactive: 0 |
| KTN1 (UniProt Q86UP2) | inactive: 0 |
| LGALS9 (UniProt O00182) | inactive: 0 |
| LRP5 (UniProt O75197) | inactive: 0 |

Quoted from the listing:
LOC153364 – dose-dependent thermal stabilisation call: inactive: 0
LRRC8D (UniProt Q7L1W4) – dose-dependent thermal stabilisation call: inactive: 0
